Article PMC6928865
Results are given in words; binding and its absence hold for the method and conditions named. Binding seen in cells or lysates may run through a third protein. Some entries that bind do so weakly or less than the wild type. Where a sequence is shown, tags or fusion partners need not be part of it.

Target: T1, VE-cadherin (RFP-tagged at the C-tail) (UniProt P33151)
T1 sequence: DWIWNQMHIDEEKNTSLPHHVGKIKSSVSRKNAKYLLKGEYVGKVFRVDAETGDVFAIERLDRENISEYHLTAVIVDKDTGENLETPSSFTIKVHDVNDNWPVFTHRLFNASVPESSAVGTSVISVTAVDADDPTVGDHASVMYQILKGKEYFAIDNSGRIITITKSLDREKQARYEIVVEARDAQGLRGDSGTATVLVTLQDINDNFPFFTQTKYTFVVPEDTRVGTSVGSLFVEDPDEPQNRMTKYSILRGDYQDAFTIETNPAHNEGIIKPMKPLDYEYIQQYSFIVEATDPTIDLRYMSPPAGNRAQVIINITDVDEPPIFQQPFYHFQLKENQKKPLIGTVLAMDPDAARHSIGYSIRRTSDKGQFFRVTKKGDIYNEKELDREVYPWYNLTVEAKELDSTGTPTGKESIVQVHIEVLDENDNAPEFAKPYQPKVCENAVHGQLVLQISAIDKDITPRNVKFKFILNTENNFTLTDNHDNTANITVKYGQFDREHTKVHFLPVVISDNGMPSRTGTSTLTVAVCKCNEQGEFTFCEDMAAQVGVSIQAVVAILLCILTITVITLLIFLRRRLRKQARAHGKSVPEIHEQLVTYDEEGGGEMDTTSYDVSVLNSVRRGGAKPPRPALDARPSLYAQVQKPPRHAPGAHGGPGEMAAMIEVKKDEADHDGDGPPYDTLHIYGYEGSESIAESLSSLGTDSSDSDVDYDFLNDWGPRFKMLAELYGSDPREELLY
Test: co-IP; lysates of transiently transfected HEK-293T cells (1% Triton X-100, 10 mM Tris pH 7.6, 50 mM NaCl, 0.1% BSA); Protein A-Sepharose beads coated with anti-E-cadherin or anti-RFP antibody, or unrelated antibody (Ig), 2 h at 4 °C; Western blot against the HA-tag

binding: binds
B1: catalytically inactive S186A derivative of mouse RHBDL2 (triple N-terminal HA-tag) (enzyme, UniProt A2AGA4 1-302)
chain: MAVAHEMEMESVNLNMEREGKEEPEEEKMKGNGEGKDFPRSRKVHRIVSKWMLPEPVRRTYLERANCLPPPLFIILISLAELAVFIYYAVWKPQKQWITLDTGILESPLTYCPEKREEAWRFISYMLVHAGVQHIVGNLLMQIVLGIPLEMVHKGLRVGLVYLAGVLAGSLASSIFDPLKSLVGAAGGVYALMGGYFMNVIVNFREMIPAFGIVRLLVIILIVASDMGFALYRRFFVPANGSPVSFAAHIAGGFAGMSIGYTVFSCFDKTLLKDPRFWIAIAAYVACLLFAVFFNIFLSPAN
